Experimental data: US8901156B2, “Compounds and methods” (Tempero Pharmaceuticals, Inc., priority 2010, dated 2014)
Some results were stated once for a whole list of compounds, not compound by compound.

Sequences of proteins named here, by UniProt entry; tags and fusion partners are left off. Residues count along the entry.
UniProt Q9UKV0, 1-1066 isoform Q9UKV0-5: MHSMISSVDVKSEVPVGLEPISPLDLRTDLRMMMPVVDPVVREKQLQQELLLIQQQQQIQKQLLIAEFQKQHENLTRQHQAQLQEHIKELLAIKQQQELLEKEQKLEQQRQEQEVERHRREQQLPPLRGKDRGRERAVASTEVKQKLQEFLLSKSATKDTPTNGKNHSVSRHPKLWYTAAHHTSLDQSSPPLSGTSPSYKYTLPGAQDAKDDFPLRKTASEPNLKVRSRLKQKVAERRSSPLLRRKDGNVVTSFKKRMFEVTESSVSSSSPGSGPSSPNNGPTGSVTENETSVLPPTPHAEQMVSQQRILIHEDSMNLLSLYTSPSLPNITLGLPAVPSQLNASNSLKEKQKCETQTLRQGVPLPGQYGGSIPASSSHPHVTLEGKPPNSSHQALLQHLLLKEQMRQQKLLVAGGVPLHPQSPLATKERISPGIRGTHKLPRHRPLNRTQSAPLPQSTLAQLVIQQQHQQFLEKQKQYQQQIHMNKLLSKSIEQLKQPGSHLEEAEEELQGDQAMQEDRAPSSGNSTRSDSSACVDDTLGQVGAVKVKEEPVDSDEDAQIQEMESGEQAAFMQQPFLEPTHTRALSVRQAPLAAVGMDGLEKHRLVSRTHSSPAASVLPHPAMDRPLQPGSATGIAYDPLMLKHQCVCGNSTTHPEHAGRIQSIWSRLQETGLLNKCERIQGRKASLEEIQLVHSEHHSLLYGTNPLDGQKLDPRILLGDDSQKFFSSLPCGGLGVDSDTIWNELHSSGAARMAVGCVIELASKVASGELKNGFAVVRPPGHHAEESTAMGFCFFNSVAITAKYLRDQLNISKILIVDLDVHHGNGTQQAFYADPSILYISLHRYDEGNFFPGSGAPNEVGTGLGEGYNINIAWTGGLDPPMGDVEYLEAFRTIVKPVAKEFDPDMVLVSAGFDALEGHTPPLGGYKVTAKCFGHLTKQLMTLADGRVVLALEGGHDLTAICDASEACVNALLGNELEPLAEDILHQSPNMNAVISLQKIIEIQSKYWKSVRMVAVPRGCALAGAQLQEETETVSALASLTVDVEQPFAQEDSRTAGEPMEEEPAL

Target: T1, Recombinant HDAC9 isoform 4 (Homo sapiens, UniProt Q9UKV0)
T1 construct: purchased BPS Bioscience
Test: Histone Deacetylase 9 (HDAC9) inhibition assay, fluorogenic substrate
Assay type: biochemical
Details: mean of a minimum of 2 experiments; 11 point 3x dilution series from 100 uM; substrate 4.5 uM

| SMILES | mean pIC50, inhibition of HDAC9 |
| --- | --- |
| O=C(NCC(O)c1coc(-c2ccc(F)cc2)n1)c1cncc(-c2noc(C(F)(F)F)n2)c1 (stereo not drawn) [Example 102, N-(2-(2-(4-Fluorophenyl)oxazol-4-yl)-2-hydroxyethyl)-5-(5-(trifluoromethyl)-1,2,4-oxadiazol-3-yl)nicotinamide] | greater than 4.8 |
| O=C(NCCc1ncc(-c2ccccc2)s1)c1cccc(-c2noc(C(F)(F)F)n2)c1 [Example 72, N-(2-(5-Phenylthiazol-2-yl)ethyl)-3-(5-(trifluoromethyl)-1,2,4-oxadiazol-3-yl)benzamide] | greater than 4.8 |
| CC(C)(CNC(=O)c1ccnc(-c2noc(C(F)(F)F)n2)c1)c1nc(-c2ccc(Cl)cc2)cs1 [Example 43, N-(2-(4-(4-Chlorophenyl)thiazol-2-yl)-2-methylpropyl)-2-(5-(trifluoromethyl)-1,2,4-oxadiazol-3-yl)isonicotinamide] | greater than 4.8 |
| CC(C)(CNC(=O)c1cncc(-c2noc(C(F)(F)F)n2)c1)c1nc(-c2ccc(F)cc2)n[nH]1 [Example 67, N-(2-(3-(4-Fluorophenyl)-1H-1,2,4-triazol-5-yl)-2-methylpropyl)-5-(5-(trifluoromethyl)-1,2,4-oxadiazol-3-yl)nicotinamide] | greater than 4.8 |
| O=C(NCC1(c2cccc(-c3ccccc3)c2)CCOCC1)c1cccc(-c2noc(C(F)(F)F)n2)c1 [Example 77, N-((4-([1,1′-Biphenyl]-3-yl)tetrahydro-2H-pyran-4-yl)methyl)-3-(5-(trifluoromethyl)-1,2,4-oxadiazol-3-yl)benzamide] | greater than 4.8 |
| CC(C)(CNC(=O)c1cncc(-c2noc(C(F)(F)F)n2)c1)c1csc(-c2ccc(Cl)cc2)n1 [Example 39, N-(2-(2-(4-chlorophenyl)thiazol-4-yl)-2-methylpropyl)-5-(5-(trifluoromethyl)-1,2,4-oxadiazol-3-yl)nicotinamide] | greater than 4.8 |
| Cc1sc(C2(CNC(=O)c3cccc(-c4noc(C(F)(F)F)n4)c3)CCOCC2)nc1-c1ccccc1 [Example 18, N-((4-(5-Methyl-4-phenylthiazol-2-yl)tetrahydro-2H-pyran-4-yl)methyl)-3-(5-(trifluoromethyl)-1,2,4-oxadiazol-3-yl)benzamide] | greater than 4.8 |
| O=C(NCC1(c2nc(-c3cccs3)cs2)CCOCC1)c1cccc(-c2noc(C(F)(F)F)n2)c1 [Example 23, N-((4-(4-(Thiophen-2-yl)thiazol-2-yl)tetrahydro-2H-pyran-4-yl)methyl)-3-(5-(trifluoromethyl)-1,2,4-oxadiazol-3-yl)benzamide] | greater than 4.8 |
| CC(C)(CNC(=O)c1cccc(-c2noc(C(F)(F)F)n2)c1)c1coc(-c2ccc(F)cc2)n1 [Example 109, N-(2-(2-(4-Fluorophenyl)oxazol-4-yl)-2-methylpropyl)-3-(5-(trifluoromethyl)-1,2,4-oxadiazol-3-yl)benzamide] | greater than 4.8 |
| CN1CCC(CNC(=O)c2cncc(-c3noc(C(F)(F)F)n3)c2)(c2csc(-c3ccc(Cl)cc3)n2)CC1 [Example 40, N-((4-(2-(4-Chlorophenyl)thiazol-4-yl)-1-methylpiperidin-4-yl)methyl)-5-(5-(trifluoromethyl)-1,2,4-oxadiazol-3-yl)nicotinamide] | greater than 4.8 |
| O=S(=O)(NCC1(c2nc(-c3ccccc3)cs2)CCOCC1)c1cccc(-c2noc(C(F)(F)F)n2)c1 [Example 32, N-((4-(4-Phenylthiazol-2-yl)tetrahydro-2H-pyran-4-yl)methyl)-3-(5-(trifluoromethyl)-1,2,4-oxadiazol-3-yl)benzenesulfonamide] | greater than 4.8 |
| O=C(NCC1(c2cccc(-c3ccccc3)c2)CCOCC1)c1cncc(-c2noc(C(F)(F)F)n2)c1 [Example 78, N-((4-([1,1′-Biphenyl]-3-yl)tetrahydro-2H-pyran-4-yl)methyl)-5-(5-(trifluoromethyl)-1,2,4-oxadiazol-3-yl)nicotinamide] | greater than 4.8 |
| CC(C)(CNC(=O)c1cccc(-c2noc(C(F)(F)F)n2)c1)c1cnc(-c2ccccc2)s1 [Example 86, N-(2-Methyl-2-(2-phenylthiazol-5-yl)propyl)-3-(5-(trifluoromethyl)-1,2,4-oxadiazol-3-yl)benzamide] | greater than 4.8 |
| CC(C)(CNC(=O)c1cccc(-c2noc(C(F)(F)F)n2)c1)c1nc(-c2ccc(F)cc2)cs1 [Example 24, N-(2-(4-(4-Fluorophenyl)thiazol-2-yl)-2-methylpropyl)-3-(5-(trifluoromethyl)-1,2,4-oxadiazol-3-yl)benzamide] | greater than 4.8 |
| N#Cc1ccc(-c2nc(CCNC(=O)c3cncc(-c4noc(C(F)(F)F)n4)c3)co2)cc1 [Example 111, N-(2-(2-(4-Cyanophenyl)oxazol-4-yl)ethyl)-5-(5-(trifluoromethyl)-1,2,4-oxadiazol-3-yl)nicotinamide] | greater than 4.8 |
| CC(C)(CNC(=O)c1cccc(-c2noc(C(F)(F)F)n2)c1)c1nc(-c2ccc(C(F)(F)F)cc2)cs1 [Example 36, N-(2-Methyl-2-(4-(4-(trifluoromethyl)phenyl)thiazol-2-yl)propyl)-3-(5-(trifluoromethyl)-1,2,4-oxadiazol-3-yl)benzamide] | greater than 4.8 |
| CC(C)(CNC(=O)c1cccc(-c2csc(C(=O)C(F)(F)F)c2)c1)c1coc(-c2ccc(F)cc2)n1 [Example 140, N-(2-(2-(4-Fluorophenyl)oxazol-4-yl)-2-methylpropyl)-3-(5-(2,2,2-trifluoroacetyl)thiophen-3-yl)benzamide] | greater than 4.8 |
| CC(C)(CNC(=O)c1cccc(-c2noc(C(F)(F)F)n2)n1)c1nc(-c2ccc(Cl)cc2)cs1 [Example 46, N-(2-(4-(4-Chlorophenyl)thiazol-2-yl)-2-methylpropyl)-6-(5-(trifluoromethyl)-1,2,4-oxadiazol-3-yl)picolinamide] | greater than 4.8 |
| CN1CCC(CNC(=O)c2cccc(-c3noc(C(F)(F)F)n3)c2)(c2nc(-c3ccccc3)cs2)CC1 [Example 16, N-((1-Methyl-4-(4-phenylthiazol-2-yl)piperidin-4-yl)methyl)-3-(5-(trifluoromethyl)-1,2,4-oxadiazol-3-yl)benzamide] | greater than 4.8 |
| CN(C)CCC(CNC(=O)c1cccc(-c2noc(C(F)(F)F)n2)c1)c1coc(-c2ccc(F)cc2)n1 (stereo not drawn) [Example 100, N-(4-(Dimethylamino)-2-(2-(4-fluorophenyl)oxazol-4-yl)butyl)-3-(5-(trifluoromethyl)-1,2,4-oxadiazol-3-yl)benzamide] | greater than 4.8 |
| O=C(NCCc1nc(-c2ccccc2)no1)c1cccc(-c2noc(C(F)(F)F)n2)c1 [Example 132, N-(2-(3-Phenyl-1,2,4-oxadiazol-5-yl)ethyl)-3-(5-(trifluoromethyl)-1,2,4-oxadiazol-3-yl)benzamide] | greater than 4.8 |
| CC(C)(CNC(=O)c1cccc(-c2ccc(C(=O)C(F)(F)F)o2)c1)c1coc(-c2ccc(F)cc2)n1 [Example 116, N-(2-(2-(4-Fluorophenyl)oxazol-4-yl)-2-methylpropyl)-3-(5-(2,2,2-trifluoroacetyl)furan-2-yl)benzamide] | greater than 4.8 |
| CC(C)(CNC(=O)c1cc(-c2noc(C(F)(F)F)n2)ccc1F)c1coc(-c2ccc(F)cc2)n1 [Example 91, 2-Fluoro-N-(2-(2-(4-fluorophenyl)oxazol-4-yl)-2-methylpropyl)-5-(5-(trifluoromethyl)-1,2,4-oxadiazol-3-yl)benzamide] | greater than 4.8 |
| Cc1ncc(C(=O)NCC(C)(C)c2nc(-c3ccc(Cl)cc3)cs2)cc1-c1noc(C(F)(F)F)n1 [Example 69, N-(2-(4-(4-Chlorophenyl)thiazol-2-yl)-2-methylpropyl)-6-methyl-5-(5-(trifluoromethyl)-1,2,4-oxadiazol-3-yl)nicotinamide] | greater than 4.8 |
| O=C(NCc1coc(-c2ccc(F)cc2)n1)c1cccc(-c2noc(C(F)(F)F)n2)c1 [Example 79, N-((2-(4-Fluorophenyl)oxazol-4-yl)methyl)-3-(5-(trifluoromethyl)-1,2,4-oxadiazol-3-yl)benzamide] | greater than 4.8 |
| CC(C)(CNC(=O)c1cccc(-c2noc(C(F)(F)F)n2)c1)c1nc(-c2cc(F)cc(F)c2)cs1 [Example 125, N-(2-(4-(3,6-Difluorophenyl)thiazol-2-yl)-2-methylpropyl)-3-(6-(trifluoromethyl)-1,2,4-oxadiazol-3-yl)benzamide] | greater than 4.8 |
| CN1CCC(CNC(=O)c2cccc(-c3ccc(C(=O)C(F)(F)F)s3)c2)(c2csc(-c3ccc(Cl)cc3)n2)CC1 [Example 90, N-((4-(2-(4-Chlorophenyl)thiazol-4-yl)-1-methylpiperidin-4-yl)methyl)-3-(5-(2,2,2-trifluoroacetyl)thiophen-2-yl)benzamide] | greater than 4.8 |
| O=C(NCCc1cnc(-c2ccc(F)cc2)o1)c1cccc(-c2noc(C(F)(F)F)n2)c1 [Example 105, N-(2-(2-(4-Fluorophenyl)oxazol-5-yl)ethyl)-3-(5-(trifluoromethyl)-1,2,4-oxadiazol-3-yl)benzamide] | greater than 4.8 |
| CC(C)(CNC(=O)c1cccc(-c2noc(C(F)(F)F)n2)c1)c1nc(-c2ccccc2)cs1 [Example 15, N-(2-Methyl-2-(4-phenylthiazol-2-yl)propyl)-3-(5-(trifluoromethyl)-1,2,4-oxadiazol-3-yl)benzamide] | greater than 4.8 |
| FC(F)(F)c1nc(-c2cccc(CNCC3(c4nc(-c5ccccc5)cs4)CCOCC3)c2)no1 [Example 7, 1-(4-(4-Phenylthiazol-2-yl)tetrahydro-2H-pyran-4-yl)-N-(3-(5-(trifluoromethyl)-1,2,4-oxadiazol-3-yl)benzyl)methanamine] | greater than 4.8 |
